According to paper PMC7337926:
No constants are given. Whether binding was seen depends on the method and setting. Binding seen in cells or lysates may run through a third protein. A yes stands for co-enrichment or nearness to the bait. Other partners may have been found. Tags and fused reporters may be left off the sequences shown.

Protein sequences, listed by entry. Tags and fused reporters are not part of them. Lines headed by an entry give the natural chain unless they say otherwise; changes in a name come on top.
UniProt F4IAT2: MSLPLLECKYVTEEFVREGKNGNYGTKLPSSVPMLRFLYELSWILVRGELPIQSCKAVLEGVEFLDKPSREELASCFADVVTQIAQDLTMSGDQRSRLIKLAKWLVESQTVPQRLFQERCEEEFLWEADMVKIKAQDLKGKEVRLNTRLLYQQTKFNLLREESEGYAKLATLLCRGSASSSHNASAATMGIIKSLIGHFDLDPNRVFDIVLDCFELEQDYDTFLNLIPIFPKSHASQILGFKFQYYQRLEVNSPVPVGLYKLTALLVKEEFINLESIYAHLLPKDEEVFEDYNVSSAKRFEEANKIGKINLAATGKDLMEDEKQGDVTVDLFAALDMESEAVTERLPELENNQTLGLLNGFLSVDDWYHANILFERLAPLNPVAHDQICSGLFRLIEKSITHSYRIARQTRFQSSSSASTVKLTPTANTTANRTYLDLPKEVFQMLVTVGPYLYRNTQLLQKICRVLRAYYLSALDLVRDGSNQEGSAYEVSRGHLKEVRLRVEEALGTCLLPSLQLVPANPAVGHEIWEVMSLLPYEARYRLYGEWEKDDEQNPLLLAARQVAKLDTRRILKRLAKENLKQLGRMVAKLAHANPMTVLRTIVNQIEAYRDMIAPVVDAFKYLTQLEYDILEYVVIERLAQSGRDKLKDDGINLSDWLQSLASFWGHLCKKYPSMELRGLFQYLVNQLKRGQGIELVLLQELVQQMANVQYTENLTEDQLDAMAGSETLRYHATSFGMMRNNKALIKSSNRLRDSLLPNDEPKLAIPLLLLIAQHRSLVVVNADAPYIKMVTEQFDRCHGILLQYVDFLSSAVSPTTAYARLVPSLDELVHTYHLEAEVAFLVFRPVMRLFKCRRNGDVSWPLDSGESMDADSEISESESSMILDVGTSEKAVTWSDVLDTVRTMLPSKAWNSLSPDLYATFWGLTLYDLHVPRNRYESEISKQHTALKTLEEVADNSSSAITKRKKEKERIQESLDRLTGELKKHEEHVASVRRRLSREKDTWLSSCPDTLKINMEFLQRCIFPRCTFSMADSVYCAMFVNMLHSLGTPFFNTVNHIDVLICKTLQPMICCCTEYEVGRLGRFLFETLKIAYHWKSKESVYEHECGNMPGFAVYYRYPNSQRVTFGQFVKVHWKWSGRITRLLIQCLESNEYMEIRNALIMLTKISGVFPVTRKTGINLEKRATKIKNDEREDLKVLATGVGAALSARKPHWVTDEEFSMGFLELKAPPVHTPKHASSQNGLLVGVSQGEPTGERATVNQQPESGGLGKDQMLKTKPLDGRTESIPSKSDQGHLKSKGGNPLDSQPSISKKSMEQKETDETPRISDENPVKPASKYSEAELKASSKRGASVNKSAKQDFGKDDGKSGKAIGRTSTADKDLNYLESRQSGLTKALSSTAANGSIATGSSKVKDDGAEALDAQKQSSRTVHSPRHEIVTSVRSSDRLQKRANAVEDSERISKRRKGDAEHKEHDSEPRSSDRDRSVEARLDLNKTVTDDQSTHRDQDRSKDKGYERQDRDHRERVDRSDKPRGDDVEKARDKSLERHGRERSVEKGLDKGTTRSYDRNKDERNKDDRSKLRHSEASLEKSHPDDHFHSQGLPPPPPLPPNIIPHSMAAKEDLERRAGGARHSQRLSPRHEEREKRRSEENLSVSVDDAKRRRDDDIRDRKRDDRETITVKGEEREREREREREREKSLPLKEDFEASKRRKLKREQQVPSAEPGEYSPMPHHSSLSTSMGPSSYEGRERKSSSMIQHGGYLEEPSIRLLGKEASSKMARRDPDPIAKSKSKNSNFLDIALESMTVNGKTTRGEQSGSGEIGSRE
UniProt Q9SP32: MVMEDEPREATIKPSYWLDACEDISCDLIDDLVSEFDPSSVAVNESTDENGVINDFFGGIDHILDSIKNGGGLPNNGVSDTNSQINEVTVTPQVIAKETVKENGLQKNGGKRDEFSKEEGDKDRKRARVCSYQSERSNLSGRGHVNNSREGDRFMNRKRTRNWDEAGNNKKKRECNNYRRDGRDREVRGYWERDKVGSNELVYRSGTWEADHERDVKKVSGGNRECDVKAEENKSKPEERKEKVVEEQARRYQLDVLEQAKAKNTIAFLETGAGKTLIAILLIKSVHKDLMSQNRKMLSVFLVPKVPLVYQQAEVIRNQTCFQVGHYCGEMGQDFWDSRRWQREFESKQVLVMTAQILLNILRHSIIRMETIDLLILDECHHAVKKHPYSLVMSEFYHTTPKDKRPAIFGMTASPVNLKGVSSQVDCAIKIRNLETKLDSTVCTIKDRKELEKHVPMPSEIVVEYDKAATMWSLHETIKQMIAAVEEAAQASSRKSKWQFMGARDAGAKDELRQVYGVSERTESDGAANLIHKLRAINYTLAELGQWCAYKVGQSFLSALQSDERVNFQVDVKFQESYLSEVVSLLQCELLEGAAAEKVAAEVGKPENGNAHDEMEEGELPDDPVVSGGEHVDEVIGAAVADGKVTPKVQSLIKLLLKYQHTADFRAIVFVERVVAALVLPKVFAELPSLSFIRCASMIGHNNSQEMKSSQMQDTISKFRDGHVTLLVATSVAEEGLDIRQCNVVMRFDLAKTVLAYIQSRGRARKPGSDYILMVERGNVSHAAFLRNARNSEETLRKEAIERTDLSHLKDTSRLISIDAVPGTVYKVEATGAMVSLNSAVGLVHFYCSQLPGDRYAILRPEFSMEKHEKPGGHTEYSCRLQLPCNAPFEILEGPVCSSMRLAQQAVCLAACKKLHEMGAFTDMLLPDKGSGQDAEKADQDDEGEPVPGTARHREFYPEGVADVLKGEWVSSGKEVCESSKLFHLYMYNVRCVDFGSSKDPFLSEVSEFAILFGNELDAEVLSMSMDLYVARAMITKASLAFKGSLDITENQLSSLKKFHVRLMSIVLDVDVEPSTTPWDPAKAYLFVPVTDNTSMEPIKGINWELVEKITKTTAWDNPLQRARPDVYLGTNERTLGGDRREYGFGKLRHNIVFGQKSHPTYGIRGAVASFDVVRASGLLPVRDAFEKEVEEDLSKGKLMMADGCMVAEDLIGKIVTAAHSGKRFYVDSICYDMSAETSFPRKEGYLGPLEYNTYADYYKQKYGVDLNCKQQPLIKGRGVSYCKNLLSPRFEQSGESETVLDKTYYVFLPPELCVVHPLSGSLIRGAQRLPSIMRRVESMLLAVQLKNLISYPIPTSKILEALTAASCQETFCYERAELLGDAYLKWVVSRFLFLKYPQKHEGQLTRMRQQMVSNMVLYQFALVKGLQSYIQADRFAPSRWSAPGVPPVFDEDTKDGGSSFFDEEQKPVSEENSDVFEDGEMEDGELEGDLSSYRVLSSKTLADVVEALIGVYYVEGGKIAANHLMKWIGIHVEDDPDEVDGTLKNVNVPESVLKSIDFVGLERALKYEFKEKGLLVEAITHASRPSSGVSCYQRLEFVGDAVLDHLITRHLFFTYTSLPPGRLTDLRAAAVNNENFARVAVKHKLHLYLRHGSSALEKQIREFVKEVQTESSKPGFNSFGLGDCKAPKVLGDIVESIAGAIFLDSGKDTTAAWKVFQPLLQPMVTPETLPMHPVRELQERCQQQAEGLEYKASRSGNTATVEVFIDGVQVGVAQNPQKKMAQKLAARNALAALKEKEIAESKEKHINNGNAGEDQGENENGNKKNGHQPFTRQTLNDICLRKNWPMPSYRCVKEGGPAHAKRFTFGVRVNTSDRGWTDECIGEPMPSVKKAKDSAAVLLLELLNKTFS
UniProt Q6EVK6: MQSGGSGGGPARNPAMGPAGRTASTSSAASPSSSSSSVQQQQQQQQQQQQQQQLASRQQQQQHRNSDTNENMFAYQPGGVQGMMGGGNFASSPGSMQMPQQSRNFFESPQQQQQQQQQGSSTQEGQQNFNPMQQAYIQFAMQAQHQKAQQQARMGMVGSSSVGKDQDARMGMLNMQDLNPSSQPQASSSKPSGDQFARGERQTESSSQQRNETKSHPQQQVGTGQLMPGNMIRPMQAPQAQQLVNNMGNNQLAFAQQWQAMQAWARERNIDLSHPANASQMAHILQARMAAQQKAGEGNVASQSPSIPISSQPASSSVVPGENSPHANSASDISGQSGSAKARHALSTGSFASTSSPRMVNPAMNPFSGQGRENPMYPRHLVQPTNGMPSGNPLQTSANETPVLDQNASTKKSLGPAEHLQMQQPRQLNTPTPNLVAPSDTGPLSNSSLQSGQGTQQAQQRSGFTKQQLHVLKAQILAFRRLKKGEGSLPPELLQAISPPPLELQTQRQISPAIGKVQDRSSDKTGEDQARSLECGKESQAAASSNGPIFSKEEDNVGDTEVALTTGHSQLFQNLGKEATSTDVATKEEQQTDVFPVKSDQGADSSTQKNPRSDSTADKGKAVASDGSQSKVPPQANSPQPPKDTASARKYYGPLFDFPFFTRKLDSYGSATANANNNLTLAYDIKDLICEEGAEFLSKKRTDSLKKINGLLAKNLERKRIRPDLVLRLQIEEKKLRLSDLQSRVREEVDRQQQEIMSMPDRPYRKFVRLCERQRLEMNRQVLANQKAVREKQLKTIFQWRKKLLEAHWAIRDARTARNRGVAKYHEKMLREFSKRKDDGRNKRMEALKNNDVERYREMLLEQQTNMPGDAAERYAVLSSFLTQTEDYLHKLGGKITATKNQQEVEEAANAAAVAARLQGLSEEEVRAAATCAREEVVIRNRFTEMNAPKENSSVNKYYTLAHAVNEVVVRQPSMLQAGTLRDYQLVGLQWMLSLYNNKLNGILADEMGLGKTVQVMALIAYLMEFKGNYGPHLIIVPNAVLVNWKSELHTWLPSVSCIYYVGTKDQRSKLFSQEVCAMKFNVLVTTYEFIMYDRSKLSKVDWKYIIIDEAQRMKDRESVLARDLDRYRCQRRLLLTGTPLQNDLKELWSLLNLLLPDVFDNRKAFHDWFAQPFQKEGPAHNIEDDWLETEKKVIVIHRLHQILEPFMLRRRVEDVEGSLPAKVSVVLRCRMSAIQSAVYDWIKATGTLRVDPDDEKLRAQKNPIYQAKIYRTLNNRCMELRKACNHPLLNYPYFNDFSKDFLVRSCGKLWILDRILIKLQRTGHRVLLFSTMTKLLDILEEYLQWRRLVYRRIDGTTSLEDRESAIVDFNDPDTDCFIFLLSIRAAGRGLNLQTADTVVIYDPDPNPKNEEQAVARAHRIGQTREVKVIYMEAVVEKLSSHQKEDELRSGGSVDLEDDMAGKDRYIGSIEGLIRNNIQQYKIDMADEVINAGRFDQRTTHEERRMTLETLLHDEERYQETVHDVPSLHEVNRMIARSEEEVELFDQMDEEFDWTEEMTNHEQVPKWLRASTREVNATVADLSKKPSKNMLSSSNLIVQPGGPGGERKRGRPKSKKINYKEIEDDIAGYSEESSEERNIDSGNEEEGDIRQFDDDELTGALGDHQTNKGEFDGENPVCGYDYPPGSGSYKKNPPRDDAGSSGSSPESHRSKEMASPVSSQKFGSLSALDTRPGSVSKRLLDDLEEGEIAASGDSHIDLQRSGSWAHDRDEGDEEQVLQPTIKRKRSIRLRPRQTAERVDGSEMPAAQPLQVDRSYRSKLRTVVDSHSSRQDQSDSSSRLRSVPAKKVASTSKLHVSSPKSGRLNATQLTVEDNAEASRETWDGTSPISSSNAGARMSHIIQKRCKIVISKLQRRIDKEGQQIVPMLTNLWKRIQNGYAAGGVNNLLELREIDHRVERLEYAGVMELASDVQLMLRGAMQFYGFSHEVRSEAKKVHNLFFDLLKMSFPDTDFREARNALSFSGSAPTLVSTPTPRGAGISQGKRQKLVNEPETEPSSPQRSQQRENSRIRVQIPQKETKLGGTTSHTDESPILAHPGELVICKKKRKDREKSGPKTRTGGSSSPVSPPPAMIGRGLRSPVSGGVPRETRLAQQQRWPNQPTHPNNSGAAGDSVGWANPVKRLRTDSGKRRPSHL
UniProt F4JLJ9: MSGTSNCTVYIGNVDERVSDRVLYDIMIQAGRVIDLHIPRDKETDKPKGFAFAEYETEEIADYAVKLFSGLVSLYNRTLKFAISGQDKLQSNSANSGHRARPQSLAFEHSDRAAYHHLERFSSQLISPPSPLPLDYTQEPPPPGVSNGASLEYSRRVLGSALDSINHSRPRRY

biological target: T1, FLAG-tagged SERRATE (FLAG-SE) (Arabidopsis thaliana) (UniProt Q9ZVD0); experiment: affinity purification with mass spectrometry; FLAG-SE as bait from flower extracts (50 mM Tris HCl pH 8.0, 50 mM NaCl, 1% Triton X-100), anti-FLAG magnetic microbeads, LC-MS/MS; mock IPs in Col-0
T1 sequence: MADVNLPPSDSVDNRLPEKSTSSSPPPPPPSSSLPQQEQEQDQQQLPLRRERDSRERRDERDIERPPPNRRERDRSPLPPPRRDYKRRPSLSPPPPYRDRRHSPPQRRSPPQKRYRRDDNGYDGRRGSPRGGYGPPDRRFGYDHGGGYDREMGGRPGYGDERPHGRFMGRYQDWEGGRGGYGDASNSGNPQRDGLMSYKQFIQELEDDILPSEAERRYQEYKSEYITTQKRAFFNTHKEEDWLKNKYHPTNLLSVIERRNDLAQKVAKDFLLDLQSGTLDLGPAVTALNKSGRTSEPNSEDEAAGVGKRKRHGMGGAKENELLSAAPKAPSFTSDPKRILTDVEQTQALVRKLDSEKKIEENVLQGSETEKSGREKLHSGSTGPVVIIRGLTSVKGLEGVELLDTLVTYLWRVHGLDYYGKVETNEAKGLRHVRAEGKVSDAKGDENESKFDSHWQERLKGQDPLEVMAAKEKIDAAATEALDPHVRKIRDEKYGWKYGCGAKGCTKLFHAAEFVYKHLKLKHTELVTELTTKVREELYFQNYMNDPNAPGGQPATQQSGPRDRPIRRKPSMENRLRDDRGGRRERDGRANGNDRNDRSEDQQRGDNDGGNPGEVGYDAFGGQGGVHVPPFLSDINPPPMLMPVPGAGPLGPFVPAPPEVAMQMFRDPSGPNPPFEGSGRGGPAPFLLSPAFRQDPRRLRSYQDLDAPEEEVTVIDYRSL

Molecule	binding
HOS5	binds
THO2 (from UniProt F4IAT2 1-1823)	binds
THO7	binds
Dicer like 1 (DCL1) (from UniProt Q9SP32 1-1909)	binds
BRM (from UniProt Q6EVK6 1-2193)	binds
ZCCHC8B (endogenous)	binds
ZCCHC8A (endogenous)	binds
RBM7 (endogenous) (from UniProt F4JLJ9)	binds
CBP80 (protein, UniProt Q9SIU2 1-848) MSNWKTLLLRIGEKGPEYGTSSDYKDHIETCFGVIRREIERSGDQVLPFLLQCAEQLPHKIPLYGTLIGLLNLENEDFVQKLVESVHANFQVALDSGNCNSIRILLRFMTSLLCSKVIQPASLIVVFETLLSSAATTVDEEKGNPSWQPQADFYVICILSSLPWGGSELAEQVPDEIERVLVGIQAYLSIRKNSSTSGLNFFHNGEFESSLAEKDFVEDLLDRIQSLASNGWKLESVPRPHLSFEAQLVAGKFHELRPIKCMEQPSPPSDHSRAYSGKQKHDALTRYPQRIRRLNIFPANKMEDVQPIDRFVVEEYLLDVLFYLNGCRKECASYMANLPVTFRYEYLMAETLFSQILLLPQPPFKTLYYTLVIMDLCKALPGAFPAVVAGAVRALFEKISDLDMESRTRLILWFSHHLSNFQFIWPWEEWAFVLDLPKWAPKRVFVQEILQREVRLSYWDKIKQSIENATALEELLPPKAGPNFMYSLEEGKEKTEEQQLSAELSRKVKEKQTARDMIVWIEETIYPVHGFEVTLTIVVQTLLDIGSKSFTHLVTVLERYGQVFSKLCPDNDKQVMLLSQVSTYWKNNVQMTAVAIDRMMGYRLVSNQAIVRWVFSPENVDQFHVSDQPWEILGNALNKTYNRISDLRKDISNITKNVLVAEKASANARVELEAAESKLSLVEGEPVLGENPAKMKRLKSTVEKTGEAELSLRESLEAKEALLNRALSETEVLLLLLFQSFLGVLKERLPDPTKVRSVQDLKSIGAEDDKPSAMDVDSENGNPKKSCEVGEREQWCLSTLGYLTAFTRQYASEIWPHMEKLESEVFSGEDVHPLFLQAISSALQFPLH	binds
THO6 (protein, UniProt Q8L4M1 1-367) MYGDATNWNEDEYRESILKEREIETRTVFRTAWAPPARISNPDAFVVASSDGTLAFHSLNSLVSQSASFGYSKGQDVMVAEPERVVRAHEGPAYDVKFYGEDEDALLLSCGDDGRVRGWKWREFAESDVSLHLKENHLKPLLELINPQHKGPWGALSPMPEINAMSVDPQSGSVFTAAGDSCAYCWDVESGKIKMTFKGHSDYLHTVVSRSSASQILTGSEDGTARIWDCKTGKCVKVIGSQDKKSRLRVSSMALDGSESWLVCGQGKNLALWNLPASECVQTIPIPAHVQDVMFDEKQILTVGAEPLLRRFDLNGALLSQIHCAPCSVFSISLHPAGVVAVGGYGGIVDVISQFGSHLCTFRSSSL	binds
THO5A (protein, UniProt F4HRC1 1-452) MQSEMAIDTVATAEKSPLELLQQTKASVEAIIAKMLSIKQQGTPKSENRELLTQMFLNFINLRQANRSILIEEEKVRTETEIAKSPVDFTTLELHNLMYEKSHYLKANKASRDFKSRYPNIDLISEQDFFSDAPEAIKSQTLSNDSSHDLMLKRLNFELHQRKELCKLRVRLEQQKKSLLESNAERNKFLSSLPVHLKSLKKASLPVQSQLSLQNQKKLKYHNLAELLPPPLYVIYSQFMALKEAFEENIDVEVSGSLKDAQTYARQQAEQNSESLRLEVGVDEERQRKRLKKVGSDEGGVYQVHPLKVVLHVYDDEITDPKSHELVMLKFEYLLKLNVVCVGIEESEDGLEKNILCNLFPDDSGLEPPHQSAKLILGNDHVFDKSRTSRPYKWAQHLAGIETLPEMSPFFTDKDIQYSDTAKGYASASDHRNVQTVLQRIRSQKKTKLTLV	binds
THO4B (protein, UniProt Q8L719 1-292) MSGGLDMSLDDIIKSNRKPTGSRGRGGIGGGNNTGGRGGSGSNSGPSRRFANRVGARTAPYSRPIQQQQAHDAMWQNDVFATDASVAAAFGHHQTAVVGGGSSIETGTKLYISNLDYGVSNEDIKELFSEVGDLKRYGIHYDRSGRSKGTAEVVFSRRGDALAAVKRYNNVQLDGKLMKIEIVGTNLSAPALPILATAQIPFPTNGILGNFNENFNGNFNGNFNGNFRGRGRGGFMGRPRGGGFGGGNFRGGRGARGRGGRGSGGRGRDENVSAEDLDAELDKYHKEAMETS	binds
CBP20 (protein, UniProt Q9XFD1 1-257) MASLFKEQAKLSAYRDRRFSGTQEEFDEALRASTTVYIGNVSFYTTEEQLYELFSRAGEIKKIIMGLDKNTKTPCGFCFVLFYSREDTEDAVKYISGTILDDRPIRVDFDWGFQEGRQWGRGRSGGQVRDEYRTDYDPARGGYGKLVQKELEAQRQLVDYGTGSLGAYPQAAPTNYGNGRRGGGNYGQGGQNRHGRGDYHRKRQRDDDRYGRDNSRRNTDHESRRDTDSDMRPEKNPRFRESGDSDDDGEDDRKRRS	binds
CPL1 (protein, UniProt Q5YDB6 1-967) MYSNNRVEVFHGDGRLGELEIYPSRELNQQQDDVMKQRKKKQREVMELAKMGIRISHFSQSGERCPPLAILTTISSCGLCFKLEASPSPAQESLSLFYSSCLRDNKTAVMLLGGEELHLVAMYSENIKNDRPCFWAFSVAPGIYDSCLVMLNLRCLGIVFDLDETLVVANTMRSFEDKIDGFQRRINNEMDPQRLAVIVAEMKRYQDDKNLLKQYIESDQVVENGEVIKVQSEIVPALSDNHQPLVRPLIRLQEKNIILTRINPMIRDTSVLVRMRPSWEELRSYLTAKGRKRFEVYVCTMAERDYALEMWRLLDPEGNLINTNDLLARIVCVKSGFKKSLFNVFLDGTCHPKMALVIDDRLKVWDEKDQPRVHVVPAFAPYYSPQAEAAATPVLCVARNVACGVRGGFFRDFDDSLLPRIAEISYENDAEDIPSPPDVSHYLVSEDDTSGLNGNKDPLSFDGMADTEVERRLKEAISASSAVLPAANIDPRIAAPVQFPMASASSVSVPVPVQVVQQAIQPSAMAFPSIPFQQPQQPTSIAKHLVPSEPSLQSSPAREEGEVPESELDPDTRRRLLILQHGQDTRDPAPSEPSFPQRPPVQAPPSHVQSRNGWFPVEEEMDPAQIRRAVSKEYPLDSEMIHMEKHRPRHPSFFSKIDNSTQSDRMLHENRRPPKESLRRDEQLRSNNNLPDSHPFYGEDASWNQSSSRNSDLDFLPERSVSATETSADVLHGIAIKCGAKVEYKPSLVSSTDLRFSVEAWLSNQKIGEGIGKSRREALHKAAEASIQNLADGYMRANGDPGPSHRDATPFTNENISMGNANALNNQPFARDETALPVSSRPTDPRLEGSMRHTGSITALRELCASEGLEMAFQSQRQLPSDMVHRDELHAQVEIDGRVVGEGVGSTWDEARMQAAERALSSVRSMLGQPLHKRQGSPRSFGGMSNKRLKPDFQRSLQRMPSSGRYS	binds
CDC5 (protein, UniProt P92948 1-844) MRIMIKGGVWKNTEDEILKAAVMKYGKNQWARISSLLVRKSAKQCKARWYEWLDPSIKKTEWTREEDEKLLHLAKLLPTQWRTIAPIVGRTPSQCLERYEKLLDAACTKDENYDAADDPRKLRPGEIDPNPEAKPARPDPVDMDEDEKEMLSEARARLANTRGKKAKRKAREKQLEEARRLASLQKRRELKAAGIDGRHRKRKRKGIDYNAEIPFEKRAPAGFYDTADEDRPADQVKFPTTIEELEGKRRADVEAHLRKQDVARNKIAQRQDAPAAILQANKLNDPEVVRKRSKLMLPPPQISDHELEEIAKMGYASDLLAENEELTEGSAATRALLANYSQTPRQGMTPMRTPQRTPAGKGDAIMMEAENLARLRDSQTPLLGGENPELHPSDFTGVTPRKKEIQTPNPMLTPSMTPGGAGLTPRIGLTPSRDGSSFSMTPKGTPFRDELHINEDMDMHESAKLERQRREEARRSLRSGLTGLPQPKNEYQIVAQPPPEESEEPEEKIEEDMSDRIAREKAEEEARQQALLKKRSKVLQRDLPRPPAASLAVIRNSLLSADGDKSSVVPPTPIEVADKMVREELLQLLEHDNAKYPLDDKAEKKKGAKNRTNRSASQVLAIDDFDENELQEADKMIKEEGKFLCVSMGHENKTLDDFVEAHNTCVNDLMYFPTRSAYELSSVAGNADKVAAFQEEMENVRKKMEEDEKKAEHMKAKYKTYTKGHERRAETVWTQIEATLKQAEIGGTEVECFKALKRQEEMAASFRKKNLQEEVIKQKETESKLQTRYGNMLAMVEKAEEIMVGFRAQALKKQEDVEDSHKLKEAKLATGEEEDIAIAMEASA	binds
THO1 (protein, UniProt Q93VM9 1-599) MDAFRDAILQRAPIETFALKTVQHFIQPQKQTKLAQDENQMLENMLRTLLQELVAAAAQSGEQIMQYGQLIDDDDDDDDIHGQIPHLLDVVLYLCEKEHVEGGMIFQLLEDLTEMSTMKNCKDVFGYIESKQDILGKQELFARGKLVMLRTCNQLLRRLSKANDVVFCGRILMFLAHFFPLSERSAVNIKGVFNTSNETKYEKDPPKGISVDFNFYKTFWSLQEYFCNPASLTSASTKWQKFSSSLAVVLNTFDAQPLSEEEGEANSLEEEAATFNIKYLTSSKLMGLELKDSSFRRHILLQCLIMFDYLRAPGKNDKDLPSETMKEELKSCEDRVKKLLEITPPKGKEFLRAVEHILEREKNWVWWKRDGCPPFEKQPIDKKSPNAGQKKRRQRWRLGNKELSQLWRWADQNPNALTDSQRVRTPDIADYWKPLAEDMDPSAGIEDEYHHKNNRVYCWKGLRFTARQDLEGFSRFTEMGIEGVVPVELLPPEVRSKYQAKPNEKAKRAKKEETKGGSHETEGNQIGVSNSEAEAEGGRGDAETMESDAIADTPTPEEQQRLGGSDTENGQEAGQIEDGETEEAGLMDTDLDHPPMPVS	binds
